Library compounds against nucleic acid targets

Calls as published in the ROBIN set (doi:10.1002/anie.202211358).

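The test is a small-molecule microarray: each compound is printed twice on a reactive slide, and binding shows as fluorescence of the labelled oligonucleotide after washing. The data file lists only calls. An earlier report of the laboratory on the PreQ1, TPP and SAM-II riboswitches (doi:10.1038/s41467-019-09493-3) used 1 µM RNA for 2 h and required a mean Z-score above 3 (spot signal-to-noise against the whole library), a score well above that on a control array, and duplicate spots agreeing (coefficient of variation under 100); it then also set aside compounds that hit other targets, which this list keeps. The cut-offs behind this list may differ. These are primary screening calls, not affinities; a compound without a hit may have attached poorly or may still bind in solution.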 “1” means called a hit, “0” means screened and not called a hit. Compounds were drawn at random from those tested, without regard to their results. A target missing from an entry has no call listed here. A dash means that no call is listed here.

Oligonucleotides screened, 5′ to 3′:
PreQ1: PreQ1 riboswitch RNA pseudoknot, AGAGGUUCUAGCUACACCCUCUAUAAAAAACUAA. From B. subtilis. About 170 hits among about 24,000 compounds.
TPP: TPP riboswitch RNA three-way junction, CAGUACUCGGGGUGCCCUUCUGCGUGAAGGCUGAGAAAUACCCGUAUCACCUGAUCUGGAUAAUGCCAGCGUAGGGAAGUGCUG. About 160 hits among about 24,000 compounds.
SAM-II: SAM-II riboswitch RNA pseudoknot, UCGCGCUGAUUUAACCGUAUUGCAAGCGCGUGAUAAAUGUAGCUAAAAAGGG. About 200 hits among about 21,000 compounds.

| structure | PreQ1 | TPP | SAM-II |
|---|---|---|---|
| `Cc1nc2cc(Cl)ccn2c(=O)c1CCO` | 0 | 0 | 0 |
| `O=C(NC1CC1)c1nn(-c2ccccc2Cl)nc1CO` | 0 | 0 | - |
| `Nc1c(C(=O)Nc2ccc(N3CCOCC3)cc2)sc2ncccc12` | 0 | 0 | 0 |
| `Cc1cnc2cc(Cl)ccc2c1SCC(=O)O` | 0 | 0 | 0 |
| `Cc1c(S(=O)(=O)c2ccc(F)cc2)c(N)n(CC2CCCO2)c1C` (centres unmarked) | 0 | 0 | 0 |
| `Nc1cc2c3c(cccc3c1)C(=O)N(CCN1CCCC1)C2=O` | 0 | 0 | 0 |
| `c1ccc(C(CCNC2CCSCC2)c2ccco2)cc1` (centres unmarked) | 0 | 0 | 0 |
| `CC(C)c1cc(C(=O)N2CCCC3(CCNC3)C2)no1` (centres unmarked) | 0 | 0 | 0 |
| `CCn1c(N)nc2cc(C(=O)NCc3cc(-c4cccnc4)no3)cnc21` | 0 | 0 | 0 |
| `CC(C)NCc1nc(-c2ccc(Cl)cc2)no1` | 0 | 0 | 0 |
| `CCCCc1ncc(C(Cc2ccc(C(=O)O)cc2)=C(Cc2cccs2)C(=O)O)[nH]1` | 0 | 0 | 0 |
| `O=C1SC(Nc2ccc(Br)cc2)C(=O)N1c1ccccc1` (centres unmarked) | 0 | 0 | 0 |
| `CO[C@H]1CN(C(=O)c2ccc(-c3ccccc3)[nH]2)CC[C@H]1N` | 0 | 0 | 0 |
| `O=C(O)c1nn(Cc2ccc(Cl)cc2Cl)c2ccccc12` | 0 | 0 | 0 |
| `N#CC1=C(N)OC2=C(C1c1cccnc1)S(=O)(=O)N(Cc1ccccc1F)c1ccccc12` (centres unmarked) | 0 | 0 | - |
| `CC(C)CNc1oc(-c2ccc(S(=O)(=O)N(C)C)cc2)nc1C#N` | 0 | 0 | - |
| `CCNc1nc(N(C)C)nc(-n2cnc(SCCOc3ccccc3)n2)n1` | 0 | 0 | - |
| `Cc1cc(Nc2ccc(F)cc2C)n2ncnc2n1` | 0 | 0 | 0 |
| `COC(=O)CC1=C(C(=O)OC)C(c2cccs2)C(C#N)=C(N)O1` (centres unmarked) | 0 | 0 | 0 |
| `COc1ccc(CCNC(=O)CN2Cc3ccccc3C(O)C2)cc1` (centres unmarked) | 0 | 0 | 0 |
| `Cc1cccc(CN2c3ccccc3C3=C(C(c4cccnc4)C(C#N)=C(N)O3)S2(=O)=O)c1` (centres unmarked) | 0 | 0 | - |
| `COc1cc(NCc2ccc3nc(N)nc(N)c3c2C)cc(OC)c1OC` | 0 | 0 | 0 |
| `CC(C)(C)c1ccc(OC(=O)c2ccccc2)cc1` | 0 | 0 | 0 |
| `CCC1CCc2nc3sc(C(=O)Nc4ccc(OC)cc4C)c(N)c3cc2C1` (centres unmarked) | 0 | 0 | 0 |
| `CC1=C(C#N)c2nc(N)c(C#N)c(C)c2C1=Cc1cn(C)c2ccccc12` | 0 | 0 | 0 |
| `N#CC1=CC2CN(Cc3ccccc3)C1C1C(=O)N(c3ccccc3)C(=O)C21` (centres unmarked) | 0 | 0 | 0 |
| `CCC1C=CCN1C(=O)c1cn2c(n1)CNCC2` (centres unmarked) | 0 | 0 | 0 |
| `CCOC(=O)c1c(NC(=O)CNCc2ccccc2)sc2c1CCCCC2` | 0 | 0 | 0 |
| `COc1cc(CNc2ccc(N3CCCC3)cc2)cc(Br)c1OCC(N)=O` | 0 | 0 | 0 |
| `O=C(C1CNCCN1C(=O)CCc1nc(Cl)n[nH]1)N1CCOCC1` (centres unmarked) | 0 | 0 | 0 |
| `Cn1c(=O)c2c(nc(NCCO)n2Cc2ccc(Cl)c(Cl)c2)n(C)c1=O` | 0 | 0 | 0 |
| `CCN(CC)c1ccc(C(=C2C=CC(=[N+](CC)CC)C=C2)c2ccc(N(CC)CC)cc2)cc1.[Cl-]` | 0 | 0 | 0 |
| `Cc1ccc(-c2nc(S(=O)(=O)c3ccc(Cl)cc3)c(NC3CC3)o2)cc1` | 0 | 0 | - |
| `CCc1n(CC(O)COc2ccc(OC)cc2)c2ccccc2[n+]1C` (centres unmarked) | 0 | 0 | 0 |
| `COc1ccc2c(c1)C(OC(C)=O)C(C)(C)C(c1cccc(Br)c1)N2` (centres unmarked) | 0 | 0 | 0 |
| `OC(CN1CCN(c2ccc(Cl)cc2)CC1)c1ccc2cc[nH]c2c1` (centres unmarked) | 0 | 0 | 0 |
| `CN(c1ncccc1C(=O)N1CCC2(CC1)NCCNC2=O)C1CCCCC1` | 0 | 0 | 0 |
| `Fc1ccc(NC(c2ccccc2)c2nnc(-c3ccccc3)o2)cc1` (centres unmarked) | 0 | 0 | 0 |
| `Cn1ccn2ncc(C(=O)N3CCN(CCO)CC(O)C3)c12` (centres unmarked) | 0 | 0 | 0 |
| `COc1ccc(-c2ccc3c(N4CCOCC4)nc(N4C[C@@H](C)O[C@@H](C)C4)nc3n2)cc1CO` | 0 | 0 | 0 |
| `Cc1cc(-c2nc3ncccc3o2)cc(Br)c1N` | 0 | 0 | 0 |
| `Cc1cc(NCc2cccnc2)n2nc(C(F)(F)F)c(-c3ccccc3)c2n1` | 0 | 0 | - |
| `Nc1cc2nonc2c2c1NON2` | 0 | 0 | 0 |
| `CCOC(=O)c1cnc2ccc(Br)cc2c1NCCc1ccccc1` | 0 | 0 | 0 |
| `CC1CC(C)CN(CCCNc2cnnc3c(Cl)cccc23)C1` (centres unmarked) | 0 | 0 | - |
| `COc1ccc(-c2nc(N)sc2-c2ccccc2)cc1` | 0 | 0 | 0 |
| `COc1ccc(C(=O)NCC(=O)NN=C(C)c2ccc(N)cc2)cc1OC` | 0 | 0 | 0 |
| `N#Cc1c(-c2ccc(C#CCO)s2)cc(-c2ccc(O)cc2)nc1N` | 0 | 0 | 0 |
| `CCCCn1nc(C2CC2)nc1-c1ccc(N)nc1` | 0 | 0 | 0 |
| `CCN1CCN(CCNc2cc(C)nc3c(-c4ccccc4OC)c(C)nn23)CC1` | 0 | 0 | 0 |
| `Cc1nn(CCC(=O)N2CCC3(CC2)[C@H](O)C[C@@H]3OCCN)c(C)c1C` | 0 | 0 | 0 |
| `CCc1cccc(C)c1Nc1c(-c2ccsc2)nc2ncccn12` | 0 | 0 | 0 |
| `Cn1c(=O)n(C)c2cc(C(O)c3cc4ccccc4o3)ccc21` (centres unmarked) | 0 | 0 | 0 |
| `CCc1ccccc1-c1ccnc(CO)c1` | 0 | 0 | 0 |
| `COc1ccccc1N1CCN(CC(O)COc2ccc(C(C)C)cc2)CC1` (centres unmarked) | 0 | 0 | 0 |
| `O=C(/C=C/c1ccccc1)CC(c1ccccc1)N1CCOCC1` (centres unmarked) | 0 | 0 | 0 |
| `CCOC(=O)CN[C@@H](C(=O)N1CC[C@@H]1C(=O)N(C)c1ccc(C(N)=NO)cc1)C1CCCCC1` | 0 | 0 | 0 |
| `c1cnn(CC2(CNC3CCN(c4ccc5c(c4)OCO5)CC3)CC2)c1` | 0 | 0 | 0 |
| `Cc1nn(-c2ccccc2)c(C)c1CC(=O)NCC(O)c1ccco1` (centres unmarked) | 0 | 0 | 0 |
| `O=S(=O)(Cc1ccc(F)cc1)NCc1cc2n(n1)CCCNC2` | 0 | 0 | 0 |
| `O=C(NCCc1ccccc1)c1cccc(S(=O)(=O)NC2CCNC2)c1` (centres unmarked) | 0 | 0 | 1 |
| `C=CCNc1ccccc1C(=O)N[C@@H](Cc1ccccc1)C(N)=O` | 0 | 0 | 0 |
| `O=C(Nc1ccc(Nc2ccncc2)cc1)c1ccc(Nc2ccnc3ccc([N+](=O)[O-])cc23)cc1[N+](=O)[O-]` | 0 | 0 | 0 |

The last 6 entries again:

* c1cnn(CC2(CNC3CCN(c4ccc5c(c4)OCO5)CC3)CC2)c1 : PreQ1: 0; TPP: 0; SAM-II: 0
* Cc1nn(-c2ccccc2)c(C)c1CC(=O)NCC(O)c1ccco1 (centres unmarked) : PreQ1: 0; TPP: 0; SAM-II: 0
* O=S(=O)(Cc1ccc(F)cc1)NCc1cc2n(n1)CCCNC2 : PreQ1: 0; TPP: 0; SAM-II: 0
* O=C(NCCc1ccccc1)c1cccc(S(=O)(=O)NC2CCNC2)c1 (centres unmarked) : PreQ1: 0; TPP: 0; SAM-II: 1
* C=CCNc1ccccc1C(=O)N[C@@H](Cc1ccccc1)C(N)=O : PreQ1: 0; TPP: 0; SAM-II: 0
* O=C(Nc1ccc(Nc2ccncc2)cc1)c1ccc(Nc2ccnc3ccc([N+](=O)[O-])cc23)cc1[N+](=O)[O-] : PreQ1: 0; TPP: 0; SAM-II: 0